# Test results published in PubChem BioAssay AID540276 (National Center for Advancing Translational Sciences (NCATS), 2011).
# About 5,400 (1.8%) of roughly 300,000 compounds were called active. Inconclusive means that the source gave no clear call. Such entries were picked first, then a sample of the others. The call rests on the fitted dose curve; tested in HEK293 cells. Potencies of inconclusive entries are doubtful fits and often do not repeat.
# Assay: qHTS for inhibitors of binding or entry into cells for Marburg Virus
# Conditions: Marburg virus pseudotyped entry inhibition, cell reporter; series mostly up to 37.8 µM
# Potency means the concentration at half of the fitted maximal effect.
row,SMILES,Potency
1,COc1ccccc1CNC(=O)c1cn(C)c2ccc(S(=O)(=O)N3CCCC3)cc2c1=O,"inconclusive: 22.4 µM [inhibitor, single point]"
2,CCCc1ccc(OCc2nc(-c3ccc(NC(=O)c4cccs4)cc3)no2)cc1,"inconclusive: 4.11 µM [inhibitor, single point]"
3,COc1ccc(S(=O)(=O)Nc2cc(SCC(=O)O)c(O)c3ccccc23)cc1,inactive
4,C(#Cc1ccccc1)C[N+]1(CC#Cc2ccccc2)CCCCC1,inactive
5,CCOc1cc(C2CC(=O)Nc3c2c(C)nn3-c2nc(C)cc(C)n2)ccc1O (stereo unspecified),inactive
6,COc1ccccc1N1CCN(C(=O)c2oc3ccccc3c2N)CC1,"inconclusive: 25.1 µM [inhibitor, single point]"
7,COc1cc2c(cc1OC)CN(c1nc(CN3CCCC3)nc3sc(C)c(C)c13)CC2,"inconclusive: 35.5 µM [inhibitor, single point]"
8,O=C(NCc1ccc2c(c1)OCO2)c1cccc([N+](=O)[O-])c1,inactive
9,CS(=O)(=O)N1CCc2ccc(NC(=O)C3CCCO3)cc2C1 (stereo unspecified),inactive
10,CCC(=O)N1CCc2cc(S(=O)(=O)CCC(=O)Nc3ccc(OC)c(OC)c3)ccc21,inactive
11,COc1ccc(C2C3=C(CC(C)(C)CC3=O)Oc3ncn(Cc4ccccc4)c(=N)c32)cc1 (stereo unspecified),"inconclusive: 29.1 µM [inhibitor, single point]"
12,Fc1ccc(-c2nc3c(Cl)cc(C(F)(F)F)cn3c2Cl)cc1,inactive
13,Nc1c(Cl)cc(C(=O)NC2CC2)cc1Cl,active: 11.2 µM
14,Cc1ccc(C(=O)CC(=O)c2ccccc2C)c(O)c1,"inconclusive: 8.91 µM [inhibitor, partial curve]"
15,Cc1nc(C(C)N(C)Cc2c(C(=O)N3CCCCC3)nc3c(C)cccn23)c(C)s1 (stereo unspecified),inactive
16,Cc1ccc(-c2csc(NC(=O)COC(=O)c3cccc(S(=O)(=O)N4CCOCC4)c3)n2)cc1,"inconclusive: 7.3 µM [inhibitor, partial curve]"
17,O=C(NC1CCCCC1)C(c1cccnc1)N(CCc1ccccc1)C(=O)Cc1cccs1 (stereo unspecified),inactive
18,Cc1ccc(C)c(NC(=O)COc2cccc3c2CCN(Cc2ccccc2)C3=O)c1,"inconclusive: 0.501 µM [inhibitor, full curve, poor fit]"
19,CCN(CCCn1c(SCC#N)nc2ccccc2c1=O)c1ccccc1,active: 9.2 µM
20,O=C(CN1C(=O)COc2ccccc21)NCCCN1CCN(Cc2ccccc2)CC1,"inconclusive: 0.73 µM [inhibitor, full curve, poor fit]"
21,O=C1COc2ccc(S(=O)(=O)N3CCC(C(=O)NCc4ccccc4)CC3)cc2N1,"inconclusive: 3.55 µM [activator, single point]"
22,CCOC(=O)c1nnc2c(-c3ccc(F)cc3)c(C)nn2c1N,inactive
23,Cn1c(-c2ccccc2)c(C(=O)CCl)c2ccccc21,"inconclusive: 7.94 µM [inhibitor, partial curve, poor fit]"
24,Cc1ccccc1C(=O)NC(NC(=O)c1ccccc1C)c1cccc([N+](=O)[O-])c1,"inconclusive: 31.6 µM [inhibitor, single point]"

row,SMILES,Potency
1,COC(=O)CCC(=O)Nc1cccc(Br)c1,inactive
2,Cc1cccc(Cc2c(C)nc3nc(SCC(=O)NC4CCCCC4)nn3c2C)c1,"inconclusive: 11.2 µM [activator, single point]"
3,Cc1cc(N)n2nc(-c3ccccc3)cc2n1,active: 8.91 µM
4,Cc1cc2ccc(C)c(C)c2nc1SCC(=O)c1cccs1,"inconclusive: 10.3 µM [inhibitor, partial curve]"
5,CSc1ncc(CN2CCCCC2C(=O)Nc2ccc(Oc3ccccc3)nc2)cn1 (stereo unspecified),active: 5.62 µM
6,CCOC(=O)N1CCN(c2nc(C(F)(F)F)nc3c(C)cc(C)cc23)CC1,"inconclusive: 23.1 µM [inhibitor, partial curve, poor fit]"
7,Nc1nc(-c2cccc(Br)c2)cs1,inactive
8,Cc1c(C(=O)OCC(=O)N2CC(=O)Nc3ccccc32)oc2ccc(Br)cc12,"inconclusive: 11.2 µM [inhibitor, partial curve]"
9,O=C(Nc1ccc(N2CCOCC2)c(Cl)c1)c1c(F)c(F)c(F)c(F)c1F,inactive
10,COc1ccccc1C1c2ccc3ccccc3c2Oc2ncn(CCCO)c(=N)c21 (stereo unspecified),"inconclusive: 6.31 µM [inhibitor, full curve, poor fit]"
11,O=C(CN1C(=O)S/C(=C\C=C\c2ccccc2)C1=O)Nc1cccc(O)c1,"inconclusive: 1 µM [inhibitor, partial curve, poor fit]"
12,CC(C)(C)NC(=O)CCN(/N=C/c1ccncc1)C1=NS(=O)(=O)c2ccccc21,"inconclusive: 28.2 µM [inhibitor, single point]"
13,Cc1ccc(C2Nc3ccccc3C(=O)N2Cc2ccco2)cc1 (stereo unspecified),"inconclusive: 15.8 µM [inhibitor, partial curve, poor fit]"
14,Clc1cccc2sc(-c3nnc(-c4ccccc4)o3)c(Cl)c12,"inconclusive: 2 µM [activator, partial curve, poor fit]"
15,CC(C)CC(=O)N(Cc1ccccc1)S(=O)(=O)c1ccc2c(c1)oc(=O)n2C,inactive
16,COC(=O)c1ccc(/C=N/OCC(=O)NC2CCCC(C)C2C)cc1 (stereo unspecified),inactive
17,Cc1ccc(/C=N/NC(=O)c2nn(C)cc2Cl)cc1,inactive
18,CC(=O)c1ccc(NC(=O)COc2ccccc2-c2nc(C)no2)cc1,inactive
19,CN1CCc2c(sc3c2C(=O)NC(c2ccc(-c4ccc(Cl)cc4)o2)N3)C1 (stereo unspecified),"inconclusive: 17.8 µM [inhibitor, single point]"
20,CCN(CC)C(=O)CSC(Nc1ccc(F)cc1)=C(C#N)C#N,"inconclusive: 3.16 µM [activator, single point]"
21,O=c1c([N+](=O)[O-])c(N2CCCCC2)c2ccccc2n1-c1ccccc1,"inconclusive: 20 µM [activator, single point]"
22,CCc1sc(N2C(=O)C3C4CCC(C4=C(C)C)C3C2=O)nc1-c1ccccc1 (stereo unspecified),"inconclusive: 29.1 µM [inhibitor, single point]"
23,CC(Oc1ccc2ccccc2c1)C(=O)NNC(=S)NC(=O)c1ccco1 (stereo unspecified),"inconclusive: 25.1 µM [inhibitor, single point]"
24,c1ccc2c(OCCCCN3CCOCC3)cccc2c1,inactive

row,SMILES,Potency
1,CC(C)OCCCn1c(=N)c(C(N)=S)cc2c(=O)n3ccccc3nc21,"inconclusive: 8.2 µM [inhibitor, partial curve, poor fit]"
2,O=C(c1cccc([N+](=O)[O-])c1)N1CCN(c2ccc(Cl)cc2)CC1,"inconclusive: 2.31 µM [inhibitor, partial curve, poor fit]"
3,O=C(Cn1c(=O)n(-c2ccccc2)c(=O)c2c3c(sc21)CCCC3)Nc1ccc(F)cc1,"inconclusive: 11.2 µM [activator, partial curve, poor fit]"
4,Cc1ccc(NS(=O)(=O)c2cccc(C(=O)N(C)Cc3cccs3)c2)cc1,"inconclusive: 12.6 µM [inhibitor, partial curve, poor fit]"
5,CC(=O)Nc1ccc(NC(=O)C(F)(F)F)cc1,inactive
6,CCCc1cc(=O)[nH]c2nnc(SCC(=O)Nc3ccc(NC(C)=O)cc3)n12,"inconclusive: 2.51 µM [activator, full curve, poor fit]"
7,Cc1ccc(/C=N/n2c(C3CCCCC3)n[nH]c2=S)o1,"inconclusive: 31.6 µM [activator, single point]"
8,Cc1cc(=O)[nH]c(SCC(=O)N2CCN(C(=O)c3ccco3)CC2)n1,inactive
9,CC1=C(C(=O)OC2CCCC2)C(c2cccc(Cl)c2Cl)CC(=O)N1 (stereo unspecified),inactive
10,S=c1[nH]nc(-c2ccco2)n1-c1ccc(Cl)cc1,inactive
11,COC(=O)c1ccccc1NC(=O)C12CC3CC(C1)CC(n1cnc(Cl)n1)(C3)C2,"inconclusive: 14.6 µM [inhibitor, single point]"
12,CC(=O)N(\C=C/C=C/C=C1\Sc2ccccc2C1=O)c1ccccc1,"inconclusive: 10 µM [inhibitor, partial curve, poor fit]"
13,Cc1sc2nc(-c3ccco3)oc(=O)c2c1C,inactive
14,CC(CCc1ccc(O)cc1)NC(c1ccccc1)c1ccc(Cl)cc1 (stereo unspecified),"inconclusive: 11.2 µM [inhibitor, partial curve, poor fit]"
15,COc1ccc(CNC(=O)CN(C(=O)CCC(=O)Nc2nccs2)c2ccc(C)cc2)cc1,inactive
16,COc1ccc(N2CCN(C(=O)c3ccc(N(C)S(=O)(=O)c4ccc(C)cc4)cc3)CC2)cc1,"inconclusive: 35.5 µM [inhibitor, single point]"
17,CN(C)c1ccc(CNn2cnnc2SCc2ccccc2F)cc1,inactive
18,CCC(=O)c1ccc(OCC(=O)OCC(=O)NCCC2=CCCCC2)cc1,"inconclusive: 31.6 µM [activator, single point]"
19,O=C1C(=O)N(CC2CCCO2)C(c2ccco2)/C1=C(/O)c1ccc(F)cc1 (stereo unspecified),inactive
20,COc1ccccc1/C=C/C1C(C(=O)OCC(C)C)=C(C)N=C2SCCC(=O)N21 (stereo unspecified),"inconclusive: 14.1 µM [inhibitor, single point]"
21,Cn1c(=O)c2ncn(CC(=O)Nc3cccc(-c4nc5ccccc5s4)c3)c2n(C)c1=O,"inconclusive: 29.1 µM [inhibitor, single point]"
22,Cc1cc(C(=O)CSc2nnc(-c3cccs3)n2Cc2ccccc2)c(C)n1C,"inconclusive: 14.1 µM [inhibitor, partial curve, poor fit]"
23,COc1ccccc1CC(=O)Nc1sc2c(c1C(N)=O)CCCC2,inactive

# Arranged by SMILES length (rising): part of the list above.
row,SMILES,Potency
13,Cc1sc2nc(-c3ccco3)oc(=O)c2c1C,inactive
7,Cc1ccc(/C=N/n2c(C3CCCCC3)n[nH]c2=S)o1,"inconclusive: 31.6 µM [activator, single point]"
15,COc1ccc(CNC(=O)CN(C(=O)CCC(=O)Nc2nccs2)c2ccc(C)cc2)cc1,inactive
